The series relates to whole tobacco leaf. As to the kind of experiment: Total TSNA in cured tobacco, ferulic acid solution sprayed one day after harvesting (Example 1). Conditions: 0.25% wt. by volume ferulic acid, no surfactant, 100 ml per stalk. How it is done: Two samples of whole tobacco leaves still on the stalk were cured in a bulk barn. One sample was treated with ferulic acid by spraying an aqueous solution comprising 0.25% wt. by volume of ferulic acid onto the harvested tobacco plant, one day after harvesting. The amount of solution applied to each stalk of leaves was 100 ml. The other sample was untreated tobacco of the same variety as the treated tobacco and harvested at the same time as the treated tobacco.
Both the treated and untreated samples were hung in the same bulk barn to cure. The curing process comprised two weeks of circulating air throughout the bulk barn followed by three weeks of wood fire curing.
After curing, whole tobacco leaves were randomly removed from the stalk and subject to testing to determine the content of nitrosamines. The nitrosamines that were measured were N-nitrosonornicotine (NNN), N-nitrosoanatabine (NAT), N-nitrosoanabasine (NAB), and 4-methyl-N-nitrosamine-1-(3-pyridyl)-1-butanone (NNK). The total content of NNN, NAT, NAB, and NNK make up the total N-nitrosamine (TSNA) content. The methodology employed was a chromatographic method described by Risner, Reece and Morgan, Recent Advances in Tobacco Science 27:47 (2001).

As to `COc1cc(C=CC(=O)O)ccc1O` [ferulic acid, 4-hydroxy-3-methoxy cinnamic acid], the “Total TSNA (dwb), Lug” value (lower leaves, untreated 2.43) is 1.84 ppm. In addition, the “Total TSNA (dwb), Second” value (middle leaves, untreated 1.60) is recorded as 1.37 ppm. Besides, for the setting “top leaves, untreated 2.16”, the “Total TSNA (dwb), Leaf” value was 1.64 ppm. Also, the “Total TSNA (dwb), Avg.” value (untreated 2.14) is recorded as 1.59 ppm.

The record behind these values is patent US20070149408A1, “METHOD FOR REDUCING NITROSAMINES IN TOBACCO” (UNIVERSITY OF KENTUCKY RESEARCH FOUNDATION, priority 2005, published 2007).
